The results in this text go back to publication PMC3510188.

Sequences of proteins named here, by UniProt entry; tags and fusion partners are left off. A change or cut given only in a name is not applied to a line headed by its entry.
UniProt Q86VP1: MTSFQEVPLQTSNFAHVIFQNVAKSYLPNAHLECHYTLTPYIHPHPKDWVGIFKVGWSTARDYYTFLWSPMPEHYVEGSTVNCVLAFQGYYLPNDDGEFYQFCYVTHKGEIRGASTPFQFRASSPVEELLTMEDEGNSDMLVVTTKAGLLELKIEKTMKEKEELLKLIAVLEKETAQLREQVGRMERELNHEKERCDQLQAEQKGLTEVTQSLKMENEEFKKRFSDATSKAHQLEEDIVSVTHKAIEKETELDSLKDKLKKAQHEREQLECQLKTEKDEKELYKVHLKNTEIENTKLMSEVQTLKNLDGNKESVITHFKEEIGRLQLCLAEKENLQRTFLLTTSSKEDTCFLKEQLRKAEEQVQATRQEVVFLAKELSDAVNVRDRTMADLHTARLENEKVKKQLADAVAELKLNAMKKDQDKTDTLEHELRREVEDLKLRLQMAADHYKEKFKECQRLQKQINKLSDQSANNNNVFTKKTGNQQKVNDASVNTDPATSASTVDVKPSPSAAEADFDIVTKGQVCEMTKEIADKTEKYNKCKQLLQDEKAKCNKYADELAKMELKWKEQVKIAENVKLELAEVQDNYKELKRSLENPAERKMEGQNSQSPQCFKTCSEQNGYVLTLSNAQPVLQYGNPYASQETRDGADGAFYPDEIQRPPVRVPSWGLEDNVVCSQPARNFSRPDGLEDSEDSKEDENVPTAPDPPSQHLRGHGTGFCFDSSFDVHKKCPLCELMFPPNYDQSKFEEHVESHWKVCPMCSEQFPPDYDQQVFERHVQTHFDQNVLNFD
UniProt Q9UHD2: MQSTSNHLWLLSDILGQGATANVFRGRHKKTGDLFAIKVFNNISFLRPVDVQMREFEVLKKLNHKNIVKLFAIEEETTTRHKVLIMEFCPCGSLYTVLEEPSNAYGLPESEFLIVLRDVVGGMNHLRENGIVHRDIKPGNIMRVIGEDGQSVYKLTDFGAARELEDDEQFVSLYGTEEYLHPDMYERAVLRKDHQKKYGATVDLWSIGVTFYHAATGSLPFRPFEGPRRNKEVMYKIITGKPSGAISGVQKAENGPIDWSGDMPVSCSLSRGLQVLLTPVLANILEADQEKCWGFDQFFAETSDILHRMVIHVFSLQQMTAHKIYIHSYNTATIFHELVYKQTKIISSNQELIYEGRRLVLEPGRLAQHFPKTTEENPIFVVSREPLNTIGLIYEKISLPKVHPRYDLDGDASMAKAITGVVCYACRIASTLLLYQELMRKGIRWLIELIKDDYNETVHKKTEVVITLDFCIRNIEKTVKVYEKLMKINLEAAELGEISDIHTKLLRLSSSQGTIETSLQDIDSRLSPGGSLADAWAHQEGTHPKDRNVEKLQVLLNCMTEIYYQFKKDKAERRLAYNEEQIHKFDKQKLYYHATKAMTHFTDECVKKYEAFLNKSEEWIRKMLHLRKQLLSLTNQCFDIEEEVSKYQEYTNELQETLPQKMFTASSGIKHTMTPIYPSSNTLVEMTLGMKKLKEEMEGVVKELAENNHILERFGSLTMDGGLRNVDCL

Results are given in words; binding and its absence hold for the method and conditions named. In cells and extracts the contact can be indirect. A result given as binding can be weak or reduced; the word gives no strength.

The target of the assay is myc-TAX1BP1 (human) (UniProt Q86VP1). Description: co-IP; 293FT cells 48 h after transfection with pcDNA 3.1 myc-Tax1bp1 or pcDNA 3.1 myc-His, lysed in IGEPAL IP buffer; immunoprecipitation for 4 hours with anti-myc magnetic beads, three washes in lysis buffer; blots.

For “TBK1 (TANK-binding kinase 1) (from UniProt Q9UHD2 1-729)”, the binding result was “binds”.
